Drawing on publication doi:10.1101/2025.07.08.663435 (bioRxiv, 2025), this text covers binding for one molecule.

The chains behind the UniProt entries cited, without tags or fusion partners.
UniProt A6NHR9: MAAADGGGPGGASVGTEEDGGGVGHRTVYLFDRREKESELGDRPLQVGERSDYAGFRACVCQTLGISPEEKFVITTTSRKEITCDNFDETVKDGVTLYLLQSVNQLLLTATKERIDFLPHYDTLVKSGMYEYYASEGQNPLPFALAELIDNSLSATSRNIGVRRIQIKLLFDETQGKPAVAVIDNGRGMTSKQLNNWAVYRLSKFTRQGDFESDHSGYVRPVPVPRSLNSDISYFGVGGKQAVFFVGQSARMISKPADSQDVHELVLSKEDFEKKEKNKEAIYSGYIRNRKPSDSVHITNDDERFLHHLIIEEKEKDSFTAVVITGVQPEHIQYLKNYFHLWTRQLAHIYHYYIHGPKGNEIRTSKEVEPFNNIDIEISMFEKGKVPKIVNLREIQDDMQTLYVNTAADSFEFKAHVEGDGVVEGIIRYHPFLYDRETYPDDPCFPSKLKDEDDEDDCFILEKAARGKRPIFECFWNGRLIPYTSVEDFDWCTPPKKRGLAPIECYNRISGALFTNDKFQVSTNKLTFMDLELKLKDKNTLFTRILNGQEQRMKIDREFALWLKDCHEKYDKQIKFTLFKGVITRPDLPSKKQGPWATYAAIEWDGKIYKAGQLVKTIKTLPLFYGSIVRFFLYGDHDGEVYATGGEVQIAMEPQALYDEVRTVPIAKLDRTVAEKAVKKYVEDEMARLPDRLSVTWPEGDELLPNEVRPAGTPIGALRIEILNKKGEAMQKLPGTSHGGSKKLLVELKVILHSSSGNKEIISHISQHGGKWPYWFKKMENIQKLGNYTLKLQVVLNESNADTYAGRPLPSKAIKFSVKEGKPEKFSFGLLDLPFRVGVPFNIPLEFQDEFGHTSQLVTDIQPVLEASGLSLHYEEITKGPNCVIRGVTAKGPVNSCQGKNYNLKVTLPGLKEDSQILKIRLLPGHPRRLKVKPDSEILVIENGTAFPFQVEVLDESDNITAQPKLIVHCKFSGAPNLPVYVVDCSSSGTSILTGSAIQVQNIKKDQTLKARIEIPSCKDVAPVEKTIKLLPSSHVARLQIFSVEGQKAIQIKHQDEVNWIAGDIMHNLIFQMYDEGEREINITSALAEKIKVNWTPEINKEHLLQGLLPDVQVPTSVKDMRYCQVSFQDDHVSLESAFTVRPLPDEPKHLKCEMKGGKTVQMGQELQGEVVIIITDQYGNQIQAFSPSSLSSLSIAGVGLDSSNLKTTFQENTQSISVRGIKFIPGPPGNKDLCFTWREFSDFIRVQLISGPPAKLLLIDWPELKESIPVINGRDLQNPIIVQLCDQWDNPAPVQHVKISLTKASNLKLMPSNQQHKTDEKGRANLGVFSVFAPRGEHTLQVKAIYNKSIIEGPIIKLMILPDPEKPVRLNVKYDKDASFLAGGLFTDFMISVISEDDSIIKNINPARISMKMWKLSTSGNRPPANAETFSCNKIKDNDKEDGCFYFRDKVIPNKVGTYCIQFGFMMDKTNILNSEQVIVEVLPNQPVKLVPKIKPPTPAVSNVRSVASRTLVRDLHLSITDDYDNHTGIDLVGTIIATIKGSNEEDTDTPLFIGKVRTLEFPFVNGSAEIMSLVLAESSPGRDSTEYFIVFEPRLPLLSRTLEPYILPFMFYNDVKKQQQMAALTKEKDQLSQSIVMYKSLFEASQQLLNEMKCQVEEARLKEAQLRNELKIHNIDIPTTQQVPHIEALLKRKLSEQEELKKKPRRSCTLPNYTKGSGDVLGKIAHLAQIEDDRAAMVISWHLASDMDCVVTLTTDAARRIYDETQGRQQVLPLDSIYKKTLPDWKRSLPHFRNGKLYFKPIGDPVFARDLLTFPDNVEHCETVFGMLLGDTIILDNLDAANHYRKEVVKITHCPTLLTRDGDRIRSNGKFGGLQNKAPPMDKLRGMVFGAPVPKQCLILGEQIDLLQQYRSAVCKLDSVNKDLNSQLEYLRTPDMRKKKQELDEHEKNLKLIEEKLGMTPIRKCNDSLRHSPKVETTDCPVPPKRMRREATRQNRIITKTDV

In this assay the target is FLAG-tagged SMCHD1 wild type, expressed in 293T cells (human) (UniProt A6NHR9). The experiment in a line: co-IP.

No constants are given. Whether binding was seen depends on the method and setting. In cells and extracts the contact can be indirect. Some results given as binding are weak or reduced against the parent protein; the word gives no strength. Where a sequence is shown, tags or fusion partners need not be part of it.

B1: HA-tagged LRIF1, expressed in 293T cells (protein, UniProt Q5T3J3 1-769)
chain: MSNNLRRVFLKPAEENSGNASRCVSGCMYQVVQTIGSDGKNLLQLLPIPKSSGNLIPLVQSSVMSDALKGNTGKPVQVTFQTQISSSSTSASVQLPIFQPASSSNYFLTRTVDTSEKGRVTSVGTGNFSSSVSKVQSHGVKIDGLTMQTFAVPPSTQKDSSFIVVNTQSLPVTVKSPVLPSGHHLQIPAHAEVKSVPASSLPPSVQQKILATATTSTSGMVEASQMPTVIYVSPVNTVKNVVTKNFQNIYPKPVTEIAKPVILNTTQIPKNVATETQLKGGQHSQAAPVKWIFQDNLQPFTPSLVPVKSSNNVASKILKTFVDRKNLGDNTINMPPLSTIDPSGTRSKNMPIKDNALVMFNGKVYLLAKKGTDVLPSQIDQQNSVSPDTPVRKDTLQTVSSSPVTEISREVVNIVLAKSKSSQMETKSLSNTQLASMANLRAEKNKVEKPSPSTTNPHMNQSSNYLKQSKTLFTNPIFPVGFSTGHNAPRKVTAVIYARKGSVLQSIEKISSSVDATTVTSQQCVFRDQEPKIHNEMASTSDKGAQGRNDKKDSQGRSNKALHLKSDAEFKKIFGLTKDLRVCLTRIPDHLTSGEGFDSFSSLVKSGTYKETEFMVKEGERKQQNFDKKRKAKTNKKMDHIKKRKTENAYNAIINGEANVTGSQLLSSILPTSDVSQHNILTSHSKTRQEKRTEMEYYTHEKQEKGTLNSNAAYEQSHFFNKNYTEDIFPVTPPELEETIRDEKIRRLKQVLREKEAALEEMRKKMHQK
With B1, the binding entry is listed as “binds”.
